Source: patent US20160279215A1, “NOVEL PEPTIDES AND COMBINATION OF PEPTIDES FOR USE IN IMMUNOTHERAPY AGAINST VARIOUS TUMORS” (immatics biotechnologies GmbH, priority 2015, published 2016)
For part of these data: For expression read-outs the peptide stands for its source gene, whose mRNA was measured; the gene is not named for every peptide.

Legend:
[1] = Identification and label-free relative LC-MS quantitation of HLA-presented peptides on tumor and normal tissue samples (XPRESIDENT presentation profiles); parameters: species or system human; settings: for Additional entities of particular interest (presentation of selected peptides across entities): tumor entities on which the HLA-presented peptide was found, entity abbreviations defined in the title of Table 4B; for Entities of particular interest: entities where the peptide was over-presented on cancer samples compared to normal tissues; for cancer tissue samples where the peptide was found to be presented / normal tissue samples where the peptide was found to be presented: FIG. 1A-D, analyses of more than 170 normal tissue samples and 376 cancer samples; for cancer tissues where the peptide was found to be presented / normal tissues where the peptide was found to be presented: FIG. 1E-J and 7A-C, analyses of more than 320 normal tissue samples and 462 cancer samples
[2] = tested on: source genes of the peptides (mRNA) in tumor and normal tissue; experiment: Expression profiling of source genes by Affymetrix microarrays (target coverage); parameters: species or system human; settings: over-expression = more than 1.5-fold higher expression on tumor vs. normal tissue with highest expression, gene with minimal coverage decisive; for Target coverage for source genes of selected peptides, BPHI/PCA (%): BPHI/PCA (prostate cancer) samples; for Target coverage for source genes of selected peptides, CRC (%): CRC tumor samples; for Target coverage for source genes of selected peptides, GB (%): GB tumor samples; for Target coverage for source genes of selected peptides, GC (%): GC tumor samples; for Target coverage for source genes of selected peptides, HCC (%): HCC tumor samples; for Target coverage for source genes of selected peptides, NSCLC (%): NSCLC tumor samples; for Target coverage for source genes of selected peptides, PC (%): PC tumor samples; for Target coverage for source genes of selected peptides, RCC (%): RCC tumor samples

Substance | Target coverage for source genes of selected peptides, BPHI/PCA (%) [2] | Target coverage for source genes of selected peptides, CRC (%) [2] | Target coverage for source genes of selected peptides, GB (%) [2] | Target coverage for source genes of selected peptides, GC (%) [2] | Target coverage for source genes of selected peptides, HCC (%) [2] | Target coverage for source genes of selected peptides, NSCLC (%) [2] | Target coverage for source genes of selected peptides, PC (%) [2] | Target coverage for source genes of selected peptides, RCC (%) [2] | cancer tissues where the peptide was found to be presented [1] | other results
33: peptide found in MUC16 (gene looked up) (TLDRNSLYV; listed as Homo sapiens) [compound 33] | II (20-49% = II) | I (<19% over-expression = I) | I (<19% over-expression = I) | I (<19% over-expression = I) | I (<19% over-expression = I) | III (50-69% = III) | II (20-49% = II) | I (<19% over-expression = I) | – | Additional entities of particular interest (presentation of selected peptides across entities) [1]: OC, UTC
42: peptide found in NCAPG (gene looked up) (KQMSISTGL; listed as Homo sapiens) [compound 42] | I (<19% over-expression = I) | IV (>70% = IV) | III (50-69% = III) | III (50-69% = III) | I (<19% over-expression = I) | III (50-69% = III) | I (<19% over-expression = I) | I (<19% over-expression = I) | – | –
79: peptide found in CCNB2 (gene looked up) (TVLEEIGNRV; listed as Homo sapiens) [compound 79] | I (<19% over-expression = I) | IV (>70% = IV) | II (20-49% = II) | II (20-49% = II) | I (<19% over-expression = I) | II (20-49% = II) | I (<19% over-expression = I) | I (<19% over-expression = I) | – | –
90: peptide found in HTR3A (gene looked up) (AILNVDEKNQV; listed as Homo sapiens) [compound 90] | I (<19% over-expression = I) | I (<19% over-expression = I) | I (<19% over-expression = I) | I (<19% over-expression = I) | I (<19% over-expression = I) | II (20-49% = II) | I (<19% over-expression = I) | I (<19% over-expression = I) | – | –
111: peptide found in HMMR (gene looked up) (AQLEGKLVSI; listed as Homo sapiens) [compound 111] | I (<19% over-expression = I) | III (50-69% = III) | I (<19% over-expression = I) | III (50-69% = III) | I (<19% over-expression = I) | II (20-49% = II) | I (<19% over-expression = I) | I (<19% over-expression = I) | – | –
120: peptide found in RRM2 (gene looked up) (LQLSPLKGLSL; listed as Homo sapiens) [compound 120] | I (<19% over-expression = I) | IV (>70% = IV) | II (20-49% = II) | III (50-69% = III) | II (20-49% = II) | III (50-69% = III) | II (20-49% = II) | I (<19% over-expression = I) | – | –
249: peptide found in CDK1 (gene looked up) (YLYQILQGI; listed as Homo sapiens) [compound 249] | I (<19% over-expression = I) | IV (>70% = IV) | IV (>70% = IV) | IV (>70% = IV) | II (20-49% = II) | IV (>70% = IV) | III (50-69% = III) | II (20-49% = II) | – | –
250: peptide found in CDK1 (gene looked up) (LMQDSRLYL; listed as Homo sapiens) [compound 250] | I (<19% over-expression = I) | IV (>70% = IV) | IV (>70% = IV) | IV (>70% = IV) | II (20-49% = II) | IV (>70% = IV) | III (50-69% = III) | II (20-49% = II) | – | –
268: peptide found in TOP2A (gene looked up) (SLDKDIVAL; listed as Homo sapiens) [compound 268] | I (<19% over-expression = I) | IV (>70% = IV) | IV (>70% = IV) | IV (>70% = IV) | II (20-49% = II) | IV (>70% = IV) | III (50-69% = III) | II (20-49% = II) | – | –
284 (KLMDPGSLPPL; listed as Homo sapiens) [compound 284] | – | – | – | – | – | – | – | – | – | Entities of particular interest [1]: NSCLC, OC
286 (FLTEMVHFI; listed as Homo sapiens) [compound 286] | – | – | – | – | – | – | – | – | – | Additional entities of particular interest (presentation of selected peptides across entities) [1]: NSCLC, CLL, SCLC, UBC, NHL
288 (SLYKGLLSV; listed as Homo sapiens) [compound 288] | – | – | – | – | – | – | – | – | – | Entities of particular interest [1]: GB, NSCLC, HCC, BPH, OC, RCC, CRC, PC, OSCAR
SEQ ID NO.: 1: peptide found in CENPE (gene looked up) (KLQEKIQEL; listed as Homo sapiens) | – | – | – | – | – | – | – | – | – | cancer tissue samples where the peptide was found to be presented [1]: 31; normal tissue samples where the peptide was found to be presented [1]: 2
SEQ ID NO.: 2 (SVLEKEIYSI; listed as Homo sapiens) | – | – | – | – | – | – | – | – | 52 | normal tissues where the peptide was found to be presented [1]: 2
SEQ ID NO.: 10: peptide found in KIF15 (gene looked up) (QLIEKNWLL; listed as Homo sapiens) | – | – | – | – | – | – | – | – | – | cancer tissue samples where the peptide was found to be presented [1]: 29; normal tissue samples where the peptide was found to be presented [1]: 1
SEQ ID NO.: 11 (LLDPKTIFL; listed as Homo sapiens) | – | – | – | – | – | – | – | – | – | cancer tissue samples where the peptide was found to be presented [1]: 13
SEQ ID NO.: 40 (KIWEELSVLEV; listed as Homo sapiens) | – | – | – | – | – | – | – | – | 8 | –
SEQ ID NO.: 43: peptide found in CCR8 (gene looked up) (LLIPFTIFM; listed as Homo sapiens) | – | – | – | – | – | – | – | – | 16 | –
SEQ ID NO.: 67 (FLIENLLAA; listed as Homo sapiens) | – | – | – | – | – | – | – | – | 7 | –
SEQ ID NO.: 84 (FLLEREQLL; listed as Homo sapiens) | – | – | – | – | – | – | – | – | 24 | –
SEQ ID NO.: 152: peptide found in CXCR5 (gene looked up) (ILVTSIFFL; listed as Homo sapiens) | – | – | – | – | – | – | – | – | 16 | normal tissues where the peptide was found to be presented [1]: 6
SEQ ID NO.: 156: peptide found in CYSLTR1 (gene looked up) (VILTSSPFL; listed as Homo sapiens) | – | – | – | – | – | – | – | – | 11 | normal tissues where the peptide was found to be presented [1]: 3
SEQ ID NO.: 235: peptide found in CLSPN (gene looked up) (SLLNQPKAV; listed as Homo sapiens) | – | – | – | – | – | – | – | – | 30 | –
SEQ ID NO.: 243 (GLAEFQENV; listed as Homo sapiens) | – | – | – | – | – | – | – | – | 67 | –
